Source: patent US20190142800A1, “SYNERGISTIC ANTIFUNGAL COMPOSITIONS AND METHODS THEREOF” (VYOME THERAPEUTICS LIMITED, priority 2016, published 2019)
“And” between values parts separate entries of the source, which are not always exact repeats. Equal entries are not always repeated. The name of at least one read-out is uncertain.

Tests used:
[1] = system: Trichophyton rubrum (ATCC-28188); experiment: Checkerboard assay of fatty acid/ester with antifungals on Trichophyton rubrum (ATCC 28188); assay type: cell-based
Procedure: (§1) The synergy is measured by determining the fractional inhibitory concentration (FIC) value of the combination. This experimental set up, called checkerboard method, allows measurement of a desired effect (inhibition of fungal growth in this case) at different combinations of various concentrations of the two agents (antifungal agent and fatty acid/ester). […] No agent is added to the penultimate column on the right and the bottom row. The final column on the right is used for growth control (only inoculum in broth) and sterility control (broth alone, no inoculum). […] FIC value for each agent in a particular well of the checkerboard layout was calculated by dividing the agent concentration in that well by the established MIC value of the agent against the test organism (Hsieh et al., Synergy assessed by checkerboard: A critical Analysis, Diagn. Microbiol. Infect Dis. (1993) 16:343-349). FIC values for both agents in a particular well were calculated in this way followed by determination of the FIC index (sum of the FICs of each drug in the concerned well). […] Agents Chemother. (2010) 54(2): 602-609].
Using the checkerboard layout experimental setup described above (FIG. 1A), various medium-chain fatty acids were tested for their ability to potentiate the activity of a known antifungal agent. Concentrations above and below the MIC of each test agent were tested using serial dilution. […]

[2] = system: azole resistant C. albicans MTCC 227; experiment: Checkerboard assay on azole resistant C. albicans MTCC 227; assay type: cell-based, Candida albicans; conditions: agent's MIC in combination antifungal + undecylenic acid (partner: other agent of same combination no.)
Procedure: as §1, with “FIC” for “FIC value for each agent in a particular well of the checkerboard layout was calculated by dividing the agent concentration in that well by the established MIC value of the agent against the test organism (Hsieh et al., Synergy assessed by checkerboard: A critical Analysis, Diagn. Microbiol. Infect Dis. (1993) 16:343-349). FIC”, “Chemother.” for “Chemother. (2010) 54(2): 602-609].”
Using the checkerboard layout experimental setup described above (FIG. 1A), various medium-chain fatty acids were tested for their ability to potentiate the activity of a known antifungal agent. […]
Potentiation of the activity of antimycotic agents using ester derivatives of medium chain fatty acids was tested in a standard, well accepted in vitro assay system to check for synergy. […] FIC values for both test agents in a particular well are calculated in this way followed by determination of the FIC index (sum of the FICs of each drug in the concerned well).

SMILES | Combination MIC ([1]; agent's MIC in combination antifungal + lauric acid (partner: other agent of same combination no.)) | FIC ([1]; combination antifungal + lauric acid) | Combination MIC [2]
CCCCCCCCCCCC(=O)O [Lauric acid] | 3.9 µg/mL and 7.8 µg/mL | 0.25 and 0.5 | –
C=CCCCCCCCCC(=O)O [Undecylenic acid] | – | – | 31.25 µg/mL and 62.5 µg/mL
